Measurements taken from patent publication US10703779B2 (THE GOVERNING COUNCIL OF THE UNIVERSITY OF TORONTO, priority 2015, dated 2020).

Assay: general procedure: Fmoc solid-phase peptide synthesis; 2-chlorotrityl chloride resin; HBTU
Conditions: cyclisation step, overall

P[Sar]LGFA
cyclisation yield: 42% overall yield

Square brackets hold non-standard residues; d marks the D form. Ends that are not written are not given here. Sar = CNCC(=O)O
